Taken from: PubChem BioAssay AID1259327 (Drosophila RNAi Screening Center, 2017)

Purpose: 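Knock-downs altering cellular ATP with no metal added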
System: Drosophila S2R+ cells
Knock-down reagent: long dsRNA against Drosophila genes
Duration: 5 days (water added on day 4, read one day later)
Treatment: water added as vehicle, no metal, one day before read-out
Detection: 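Luciferase ATP signal per well, normalised to plate mean, duplicate average converted to z-score across plates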
Reading the numbers: ATP z-score: higher = more total ATP than typical wells; ATP luminescence: higher = more total ATP
Rule for the call: 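Called active when the ATP z-score exceeds 1.5 or falls below -1.5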
Meaning of the calls: active = hit: ATP up or down; inactive = no clear ATP change
The deposit covers about 3,100 reagents; this is a part drawn at random. 378 of all reagents (12%) count as active. 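Hits include both directions; z-score sign shows ATP rise or fall; raw luminescence values are not plate-normalised.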 Entries without a mark were called inactive. The numbers tell different reagents against one gene apart. Names joined by + are all predicted targets of the reagent. The record does not give: the amount of reagent.

The first 2 records, ahead of the listing:
no.	gene	dsRNA no.	ATP z-score, duplicate mean	ATP luminescence, replicate 1 (RLU)	ATP luminescence, replicate 2 (RLU)
1	CG12773	1	0.29	7.86e5	6.87e5
2	CG12773	2	-0.114	8.52e5	1.01e6

The listing, from the first entry:
no.	gene	dsRNA no.	ATP z-score, duplicate mean	ATP luminescence, replicate 1 (RLU)	ATP luminescence, replicate 2 (RLU)
1	CG12773	1	0.29	7.86e5	6.87e5
2	CG12773	2	-0.114	8.52e5	1.01e6
3	gb (genderblind)	1	-0.118	6.55e5	7.30e5
4	gb (genderblind)	2	0.427	9.08e5	8.98e5
5	Yip1d1 (Yip1 domain-containing 1)	1	-0.528	6.74e5	6.67e5
6	CG14856	1	1.1	3.25e5	9.40e5
7	CG30340	1	1.35	7.18e5	1.07e6
8	CG3603	1	-1.39	5.53e5	7.03e5
9	CG3603	2	-0.245	4.36e5	4.89e5
10	CG31999	1	-0.0488	6.24e5	8.94e5
11	CG31999	2	-0.0584	7.45e5	7.27e5
12	Unc-115b + p24-2	1	-0.388	6.70e5	6.61e5
13	Gr64f (Gustatory receptor 64f)	1	-0.0418	9.07e5	8.74e5
14	Gr64f (Gustatory receptor 64f)	2	-0.682	7.96e5	7.35e5
15	Papst2 (PAPS transporter 2)	1	-2.29 (active)	4.82e5	4.91e5
16	Papst2 (PAPS transporter 2)	2	0.935	7.82e5	8.71e5
17	Glut3 (Glucose transporter type 3)	1	0.389	3.15e5	8.08e5
18	Glut3 (Glucose transporter type 3)	2	-0.961	6.43e5	8.20e5
19	Oatp33Eb (Organic anion transporting polypeptide 33Eb)	1	-0.161	7.19e5	6.99e5
20	Oatp33Eb (Organic anion transporting polypeptide 33Eb)	2	0.0299	4.08e5	5.28e5
21	Mrp4 (Multidrug resistance protein 4)	1	-0.0175	2.93e5	7.74e5
22	Mrp4 (Multidrug resistance protein 4)	2	0.857	8.90e5	1.05e6
23	CG7255	1	0.106	7.66e5	7.18e5
24	OtopLa (Otopetrin-like a)	1	-0.85	5.69e5	4.45e5
25	OtopLa (Otopetrin-like a)	2	1.26	6.34e5	7.41e5
26	CG14223	1	1.88 (active)	9.36e5	9.15e5
27	CG14223	2	-1.49	4.48e5	4.67e5
28	PGAP2 (Post-GPI attachment to proteins 2)	1	0.599	5.26e5	5.15e5
29	PGAP2 (Post-GPI attachment to proteins 2)	2	-0.0225	8.67e5	7.77e5
